Experimental data published in publication PMC9226200.
No constants are given. Whether binding was seen depends on the method and setting. Binding seen in cells or lysates may run through a third protein. Some results given as binding are weak or reduced against the parent protein; the word gives no strength.

Protein sequences, listed by entry. Tags and fused reporters are not part of them.
UniProt P52480: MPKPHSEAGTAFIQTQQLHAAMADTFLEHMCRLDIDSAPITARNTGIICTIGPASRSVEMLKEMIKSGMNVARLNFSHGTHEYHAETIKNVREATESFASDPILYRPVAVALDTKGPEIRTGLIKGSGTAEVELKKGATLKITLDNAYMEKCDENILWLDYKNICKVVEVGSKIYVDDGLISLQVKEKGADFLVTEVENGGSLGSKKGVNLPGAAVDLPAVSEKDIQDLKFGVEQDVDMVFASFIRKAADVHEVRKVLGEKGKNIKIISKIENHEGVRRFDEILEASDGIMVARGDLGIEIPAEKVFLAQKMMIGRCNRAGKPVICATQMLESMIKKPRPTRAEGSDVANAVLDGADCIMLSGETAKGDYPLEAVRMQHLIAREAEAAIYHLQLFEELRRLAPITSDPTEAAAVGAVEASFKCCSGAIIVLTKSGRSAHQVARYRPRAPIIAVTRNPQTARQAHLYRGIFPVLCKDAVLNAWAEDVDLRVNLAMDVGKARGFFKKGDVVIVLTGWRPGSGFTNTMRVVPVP
UniProt Q01147: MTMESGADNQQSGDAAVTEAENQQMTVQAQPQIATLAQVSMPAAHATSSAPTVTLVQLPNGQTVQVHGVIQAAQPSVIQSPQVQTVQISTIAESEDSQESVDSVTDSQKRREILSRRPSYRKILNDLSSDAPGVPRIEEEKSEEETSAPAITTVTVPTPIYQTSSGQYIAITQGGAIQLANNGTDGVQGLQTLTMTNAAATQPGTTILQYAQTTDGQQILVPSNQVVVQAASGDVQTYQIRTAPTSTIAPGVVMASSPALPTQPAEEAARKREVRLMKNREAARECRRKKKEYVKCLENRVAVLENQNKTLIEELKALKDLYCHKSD

Biological target: PKM2 (mouse (endogenous in splenic B cells of C57BL/6J mice)) (UniProt P52480)
Assay: co-IP; extracts of purified CD19+ splenic B cells from C57BL/6J mice cultured with or without Hcy (100 μmol/L) for 24 h; immunoprecipitation with an antibody against PKM2, IgG as negative control; CREB1 detected by Western blot

## cyclic AMP-responsive element-binding protein 1 (from UniProt Q01147 1-327)
  binding: binds
